# PubChem BioAssay AID1224830 | NIAID – 2016
# Assay: 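Genes whose knock-down alters the TNF-alpha reporter response to LPS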 (primary screen)
# System: human THP-1 monocytic leukaemia cells, TNF dual-luciferase reporter clone, PMA-differentiated to macrophage-like cells
# Reagents: siRNA pool against human genes, 50 nM
# Timing: LPS for 4 h, given about 3 days after siRNA transfection
# Treatment: bacterial LPS (TLR4 ligand), 10 ng/ml
# Measurement: 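Ratio of firefly to renilla light, scaled to the plate median and expressed as a robust z-score per replicate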
# Reading the numbers: TNF reporter robust z-score: higher = stronger TNF reporter response to LPS
# Active means: 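Each well counts as active if its z-score is over 2.8 or under -1.5; controls are left without a call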
# Shown is one part, drawn at random, of about 18,000 reagents. About 2,900 of all reagents (16%) count as active. 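Calls are made per well; low scores hint the gene aids the LPS response, high scores that it dampens it.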 Unmarked entries are inactive. Repeated entries: four replicate wells of each siRNA pool. No sequences are given here.
gene,TNF reporter robust z-score
SLC16A13,0.46
SLC16A13,0.25
SLC16A13,0.06
SLC16A13,-0.81
NPIPB7,-1.04
NPIPB7,-0.27
NPIPB7,0.13
NPIPB7,-0.53
AXIN2,2.66
AXIN2,2.61
AXIN2,1.59
AXIN2,-0.8
PHYHD1,1
PHYHD1,1.25
PHYHD1,0.98
PHYHD1,1.94
SLC50A1,-0.43
SLC50A1,0.79
SLC50A1,0.84
SLC50A1,-0.48
FSD1L,-0.66
FSD1L,-0.7
FSD1L,-0.94
FSD1L,-0.43
LAGE3,-1.15
LAGE3,-1.05
LAGE3,-1.5
LAGE3,-0.98
PPARA,0.55
PPARA,-0.44
PPARA,0.73
PARP6,3.08 (active)
PARP6,-0.79
PARP6,-0.26
PARP6,0.77
HSD11B2,0.66
HSD11B2,0.86
HSD11B2,-0.06
HSD11B2,1.24
LMTK2,-0.26
LMTK2,-0.75
LMTK2,-1.48
LMTK2,-0.24
RNF112,-0.74
RNF112,0.52
RNF112,-0.34
RNF112,1.3

Entries listed above marked active, once more:
gene,TNF reporter robust z-score
PARP6,3.08 (active)

Additional entries follow:
gene,TNF reporter robust z-score
SGF29,-0.09
SGF29,-0.04
SGF29,0.83
SGF29,0.95
H2AC12,0.45
H2AC12,0.66
H2AC12,-0.41
H2AC12,0.39
CAPNS1,-0.19
CAPNS1,1.01
CAPNS1,0.38
CAPNS1,0.24
MMP25,-1.14
MMP25,-1.05
MMP25,-1.13
MMP25,-1.39
SART1,-0.96
SART1,-0.5
SART1,-0.45
SART1,-0.24
DOK4,-0.24
DOK4,0.65
DOK4,0.71
DOK4,-0.17
ADAMTS13,-0.99
ADAMTS13,0.11
ADAMTS13,-0.57
ADAMTS13,1.54
LIX1,-0.98
LIX1,-0.7
LIX1,-0.79
LIX1,-1.18
PPP1R3B,-0.48
PPP1R3B,1.06
PPP1R3B,1.82
PPP1R3B,2.45
PRSS3,0.73
PRSS3,3.62 (active)
PRSS3,0.21
PRSS3,-0.56
ZNF718,1.75
ZNF718,2.39
ZNF718,0.53
ZNF718,2.67
BRD7,0.55
BRD7,-0.25
BRD7,0.13
BRD7,0.47
ELP1,-1.94 (active)
ELP1,-1.93 (active)
ELP1,-1.84 (active)
ELP1,-1.81 (active)
CITED2,-0.22
CITED2,0.38
CITED2,-1.03
CITED2,1.11
DSCAM,0.82
DSCAM,0.04
DSCAM,0.45
DSCAM,0.19
EREG,1.09
EREG,1.03
EREG,0.55
EREG,0.34
